Experiment: general procedure: solution-phase peptide synthesis; N,N'-dicyclohexylcarbodiimide / 1-hydroxybenzotriazole hydrate
Conditions: coupling step

Q: For “2-furoyl-β-cyclohexyl-L-alanyl-glycyl-glycyl-β-cyclohexyl-L-alanyine 2-(1-piperidinyl)ethyl amide”, which step yield is on record?
A: 75%
